According to the supplement of paper PMC10331698:
± gives the standard deviation of the averaged measurements. Most entries show no effect beyond the scatter of the controls.

Experiments:
Experiment in all cases: level (log10 ratio to DMSO vehicle control); higher = higher biomarker level / cell amount than vehicle control
[1] = compound: O=P(O)(O)CCC(F)(F)C(F)(F)C(F)(F)C(F)(F)C(F)(F)C(F)(F)F [2-(Perfluorohexyl)ethylphosphonic acid]; settings: 2200 nM; in DMSO
Procedure: (§1)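 BioMAP Diversity Plus panel of 12 human primary cell co-culture systems (3C, 4H, LPS, SAg, BT, BF4T, BE3C, CASM3C, HDF3CGF, KF3CT, MyoF, Mphg). Compounds were added 1 h before stimulation and left for 24 h (MyoF 48 h; BT 72 h for soluble read-outs or 6 d for IgG). Biomarkers were read by ELISA, cytotoxicity by SRB, PBMC viability and proliferation by Alamar Blue. Each well value was divided by the mean of 8 DMSO control wells on the same plate and log10 transformed; duplicate blinded samples were tested at 4 concentrations.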

[2] = compound: OCCCCC(F)(F)C(F)(F)C(F)(F)C(F)(F)F [4:4 Fluorotelomer alcohol]; settings: 2200 nM; in DMSO
Procedure: as §1

[3] = compound: C=CC(=O)OCC(F)(F)C(F)(F)C(F)(F)C(F)(F)C(F)(F)C(F)(F)C(F)(F)F [1H,1H-Perfluorooctyl acrylate]; settings: 2200 nM; in DMSO
Procedure: as §1

[4] = compound: O=C(O)C(F)(F)C(F)(F)C(F)F [4H-Perfluorobutanoic acid]; settings: in DMSO
Procedure: as §1

[5] = compound: FC(F)(F)C(F)(F)C(F)(F)CC1CO1 [1H,1H-Heptafluorobutyl epoxide]; settings: 2200 nM; in DMSO
Procedure: as §1

[6] = compound: OCC(F)(F)C(F)(F)C(F)(F)C(F)(F)C(F)(F)C(F)F [1H,1H,7H-Dodecafluoro-1-heptanol]; settings: 2200 nM; in DMSO
Procedure: as §1

[7] = compound: C=CC(F)(F)C(F)(F)C(F)(F)C(F)(F)C(F)(F)C(F)(F)C(F)(F)C(F)(F)C=C [1,8-Divinylperfluorooctane]; settings: in DMSO
Procedure: as §1

[8] = compound: CO[Si](C)(CCC(F)(F)C(F)(F)C(F)(F)C(F)(F)C(F)(F)C(F)(F)F)OC [Dimethoxymethyl((perfluorohexyl)ethyl)silane]; settings: in DMSO
Procedure: as §1

[9] = compound: COC(=O)C(F)(F)C(F)(F)OC(F)(C(F)(F)F)C(F)(F)OC(F)=C(F)F [Methyl perfluoro(3-(1-ethenyloxypropan-2-yloxy)propanoate)]; settings: in DMSO
Procedure: as §1

[10] = compound: NC(=O)C(F)(F)C(F)(F)F [Pentafluoropropionamide]; settings: 2200 nM; in DMSO
Procedure: as §1

[11] = compound: NS(=O)(=O)C(F)(F)C(F)(F)C(F)(F)C(F)(F)C(F)(F)C(F)(F)C(F)(F)C(F)(F)F [Perfluorooctanesulfonamide]; settings: in DMSO
Procedure: as §1

[12] = compound: NC(=O)C(F)(F)C(F)(F)C(F)(F)C(F)F; settings: in DMSO
Procedure: as §1

[13] = compound: O=S(=O)(O)C(F)(F)C(F)(F)C(F)(F)C(F)(F)C(F)(F)C(F)(F)C(F)(F)C(F)(F)F [Potassium perfluorooctanesulfonate]; settings: 2200 nM; in DMSO
Procedure: as §1

[14] = compound: O=S(=O)(O)C(F)(F)C(F)(F)C(F)(F)C(F)(F)C(F)(F)C(F)(F)C(F)(F)C(F)(F)F [Perfluorooctanesulfonic acid]; settings: 2200 nM; in DMSO
Procedure: as §1

[15] = compound: O=S(=O)(F)C(F)(F)C(F)(F)C(F)(F)C(F)(F)C(F)(F)C(F)(F)C(F)(F)C(F)(F)F [Perfluorooctanesulfonyl fluoride]; settings: 2200 nM; in DMSO
Procedure: as §1

[16] = compound: C=C(C)C(=O)OCC(F)(F)C(F)(F)C(F)(F)C(F)(F)C(F)(F)C(F)(F)C(F)(F)F; settings: in DMSO
Procedure: as §1

[17] = compound: O=S(=O)(OCC(F)(F)F)C(F)(F)C(F)(F)C(F)(F)C(F)(F)F [2,2,2-Trifluoroethyl perfluorobutanesulfonate]; settings: 2200 nM; in DMSO
Procedure: as §1

[18] = compound: FC(F)(F)C(F)(F)C(F)(F)CI [Heptafluorobutyl iodide]; settings: 2200 nM; in DMSO
Procedure: as §1

Test System	level (log10) [1]	level (log10) [2]	level (log10) [3]	level (log10) ([4]; 2200 nM)	level (log10) ([4]; 6700 nM)	level (log10) ([4]; 20000 nM)	level (log10) ([4]; 60000 nM)	level (log10) [5]	level (log10) [6]	level (log10) ([7]; 740 nM)	level (log10) ([7]; 2200 nM)	level (log10) ([8]; 740 nM)	level (log10) ([8]; 2200 nM)	level (log10) ([9]; 740 nM)	level (log10) ([9]; 2200 nM)	level (log10) [10]	level (log10) ([11]; 2200 nM)	level (log10) ([11]; 6700 nM)	level (log10) ([11]; 20000 nM)	level (log10) ([12]; 2200 nM)	level (log10) ([12]; 6700 nM)	level (log10) ([12]; 20000 nM)	level (log10) ([12]; 60000 nM)	level (log10) [13]	level (log10) [14]	level (log10) [15]	level (log10) ([16]; 740 nM)	level (log10) ([16]; 2200 nM)	level (log10) [17]	level (log10) [18]
3C:CD54/ICAM-1	0.005 ± 0.037	-0.01 ± 0.021	0.014 ± 0.021	0.0045 ± 0.0021	-0.016 ± 0.0014	-0.0105 ± 0.018	0.0025 ± 0.0092	0.0015 ± 0.03	-0.0005 ± 0.0035	0.011 ± 0.035	-0.0035 ± 0.0035	-0.002 ± 0.0042	0.012	0.01 ± 0.0085	0.0005 ± 0.0035	0.011 ± 0.025	0.0045 ± 0.0035	-0.0005 ± 0.005	0.002 ± 0.011	-0.021 ± 0.014	-0.0095 ± 0.013	-0.0115 ± 0.019	-0.0095 ± 0.025	-0.004 ± 0.018	0.004 ± 0.016	0.006 ± 0.017	0.018 ± 0.027	-0.006 ± 0.02	0.005 ± 0.0071	0.0005 ± 0.022
BE3C:IL-1alpha	0.005 ± 0.033	0.037 ± 0.04	-0.0085 ± 0.0078	-0.022 ± 0.0042	-0.0325 ± 0.0064	-0.018 ± 0.025	-0.0045 ± 0.079	0.028 ± 0.013	0.0145 ± 0.013	0.029 ± 0.059	0.0035 ± 0.029	0.0215 ± 0.053	0.0095 ± 0.036	0.005 ± 0.055	-0.012 ± 0.016	0.0225 ± 0.032	0.032 ± 0.033	-0.005 ± 0.023	-0.066 ± 0.017	0.0495 ± 0.049	0.0235 ± 0.016	-0.008 ± 0.0085	0.015 ± 0.065	0.013 ± 0.016	0.011 ± 0.042	0.002 ± 0.0028	0.0205 ± 0.0021	0.012 ± 0.021	-0.009 ± 0.02	-0.006 ± 0.02
BT:Secreted IgG	0.025 ± 0.011	0.0145 ± 0.005	0.017 ± 0.0042	-0.028 ± 0.051	0.0315 ± 0.036	0.0205 ± 0.03	0.014 ± 0.041	0.018 ± 0.0099	0.0165 ± 0.028	-0.0095 ± 0.00071	0.016 ± 0.013	0.0275 ± 0.039	-0.007 ± 0.095	0.0285 ± 0.032	0.021 ± 0.033	0.0015 ± 0.036	0.0055 ± 0.021	-0.018 ± 0.0085	-0.141 ± 0.1	-0.0195 ± 0.037	0.0115 ± 0.073	0.026 ± 0.0085	-0.0005 ± 0.026	0.035 ± 0.025	0.0005 ± 0.015	0.008 ± 0.0071	-0.019 ± 0.11	-0.0025 ± 0.018	0.022 ± 0.017	0.0165 ± 0.021
KF3CT:uPA	0.014 ± 0.013	-0.0015 ± 0.00071	0.005 ± 0.0057	0.0115 ± 0.0035	0.0125 ± 0.028	0.0275 ± 0.0064	0.007 ± 0.035	-0.022 ± 0.021	-0.0025 ± 0.00071	-0.0005 ± 0.012	-0.0185 ± 0.0035	-0.014 ± 0.0071	-0.005 ± 0.013	-0.011 ± 0.013	0.012 ± 0.0099	0.0075 ± 0.022	0.0055 ± 0.011	0.0165 ± 0.0064	-0.093 ± 0.0014	0.0285 ± 0.019	0.008 ± 0.025	-0.0125 ± 0.028	-0.008 ± 0.021	0.001 ± 0.031	-0.0065 ± 0.011	0.0025 ± 0.011	-0.006	0.0095 ± 0.0035	0.006 ± 0.014	-0.006 ± 0.033
